First the molecules themselves.
B1: 7-dehydrocholesterol reductase (protein, UniProt Q9UBM7 1-475)
chain: MAAKSQPNIPKAKSLDGVTNDRTASQGQWGRAWEVDWFSLASVIFLLLFAPFIVYYFIMACDQYSCALTGPVVDIVTGHARLSDIWAKTPPITRKAAQLYTLWVTFQVLLYTSLPDFCHKFLPGYVGGIQEGAVTPAGVVNKYQINGLQAWLLTHLLWFANAHLLSWFSPTIIFDNWIPLLWCANILGYAVSTFAMVKGYFFPTSARDCKFTGNFFYNYMMGIEFNPRIGKWFDFKLFFNGRPGIVAWTLINLSFAAKQRELHSHVTNAMVLVNVLQAIYVIDFFWNETWYLKTIDICHDHFGWYLGWGDCVWLPYLYTLQGLYLVYHPVQLSTPHAVGVLLLGLVGYYIFRVANHQKDLFRRTDGRCLIWGRKPKVIECSYTSADGQRHHSKLLVSGFWGVARHFNYVGDLMGSLAYCLACGGGHLLPYFYIIYMAILLTHRCLRDEHRCASKYGRDWERYTAAVPYRLLPGIF
B2: Ribophorin-1 (protein, UniProt P04843 24-607)
chain: ASSEAPPLINEDVKRTVDLSSHLAKVTAEVVLAHLGGGSTSRATSFLLALEPELEARLAHLGVQVKGEDEEENNLEVRETKIKGKSGRFFTVKLPVALDPGAKISVIVETVYTHVLHPYPTQITQSEKQFVVFEGNHYFYSPYPTKTQTMRVKLASRNVESYTKLGNPTRSEDLLDYGPFRDVPAYSQDTFKVHYENNSPFLTITSMTRVIEVSHWGNIAVEENVDLKHTGAVLKGPFSRYDYQRQPDSGISSIRSFKTILPAAAQDVYYRDEIGNVSTSHLLILDDSVEMEIRPRFPLFGGWKTHYIVGYNLPSYEYLYNLGDQYALKMRFVDHVFDEQVIDSLTVKIILPEGAKNIEIDSPYEISRAPDELHYTYLDTFGRPVIVAYKKNLVEQHIQDIVVHYTFNKVLMLQEPLLVVAAFYILFFTVIIYVRLDFSITKDPAAEARMKVACITEQVLTLVNKRIGLYRHFDETVNRYKQSRDISTLNSGKKSLETEHKALTSEIALLQSRLKTEGSDLCDRVSEMQKLDAQVKELVLKSAVEAERLVAGKLKKDTYIENEKLISGKRQELVTKIDHILDAL
B3: Matrin 3 (protein, UniProt P43243 1-847)
chain: MSKSFQQSSLSRDSQGHGRDLSAAGIGLLAAATQSLSMPASLGRMNQGTARLASLMNLGMSSSLNQQGAHSALSSASTSSHNLQSIFNIGSRGPLPLSSQHRGDADQASNILASFGLSARDLDELSRYPEDKITPENLPQILLQLKRRRTEEGPTLSYGRDGRSATREPPYRVPRDDWEEKRHFRRDSFDDRGPSLNPVLDYDHGSRSQESGYYDRMDYEDDRLRDGERCRDDSFFGETSHNYHKFDSEYERMGRGPGPLQERSLFEKKRGAPPSSNIEDFHGLLPKGYPHLCSICDLPVHSNKEWSQHINGASHSRRCQLLLEIYPEWNPDNDTGHTMGDPFMLQQSTNPAPGILGPPPPSFHLGGPAVGPRGNLGAGNGNLQGPRHMQKGRVETSRVVHIMDFQRGKNLRYQLLQLVEPFGVISNHLILNKINEAFIEMATTEDAQAAVDYYTTTPALVFGKPVRVHLSQKYKRIKKPEGKPDQKFDQKQELGRVIHLSNLPHSGYSDSAVLKLAEPYGKIKNYILMRMKSQAFIEMETREDAMAMVDHCLKKALWFQGRCVKVDLSEKYKKLVLRIPNRGIDLLKKDKSRKRSYSPDGKESPSDKKSKTDGSQKTESSTEGKEQEEKSGEDGEKDTKDDQTEQEPNMLLESEDELLVDEEEAAALLESGSSVGDETDLANLGDVASDGKKEPSDKAVKKDGSASAAAKKKLKKVDKIEELDQENEAALENGIKNEENTEPGAESSENADDPNKDTSENADGQSDENKDDYTIPDEYRIGPYQPNVPVGIDYVIPKTGFYCKLCSLFYTNEEVAKNTHCSSLPHYQKLKKFLNKLAEERRQKKET

Chains of the proteins cited; added tags and fusions are not shown. Lines headed by an entry give the natural chain unless they say otherwise; changes in a name come on top. Residues count along the entry.
UniProt O95793: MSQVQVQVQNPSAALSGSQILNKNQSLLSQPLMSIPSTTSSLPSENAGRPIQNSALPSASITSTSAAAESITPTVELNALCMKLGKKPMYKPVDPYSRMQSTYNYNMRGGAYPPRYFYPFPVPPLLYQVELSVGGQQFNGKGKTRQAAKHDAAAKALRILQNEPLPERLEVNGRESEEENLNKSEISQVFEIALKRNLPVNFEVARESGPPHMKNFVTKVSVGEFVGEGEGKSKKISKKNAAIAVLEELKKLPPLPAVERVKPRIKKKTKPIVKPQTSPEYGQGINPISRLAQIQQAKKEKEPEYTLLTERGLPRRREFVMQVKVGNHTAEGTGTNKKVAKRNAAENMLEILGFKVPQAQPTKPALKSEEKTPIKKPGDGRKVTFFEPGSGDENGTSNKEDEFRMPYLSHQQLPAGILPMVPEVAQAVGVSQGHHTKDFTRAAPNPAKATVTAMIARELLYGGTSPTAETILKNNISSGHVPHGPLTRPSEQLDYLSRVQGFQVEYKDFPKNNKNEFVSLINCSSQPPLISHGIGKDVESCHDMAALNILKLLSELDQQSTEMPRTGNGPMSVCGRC
Staufen1-TAP: residues 82-577 of O95793
UniProt Q13200: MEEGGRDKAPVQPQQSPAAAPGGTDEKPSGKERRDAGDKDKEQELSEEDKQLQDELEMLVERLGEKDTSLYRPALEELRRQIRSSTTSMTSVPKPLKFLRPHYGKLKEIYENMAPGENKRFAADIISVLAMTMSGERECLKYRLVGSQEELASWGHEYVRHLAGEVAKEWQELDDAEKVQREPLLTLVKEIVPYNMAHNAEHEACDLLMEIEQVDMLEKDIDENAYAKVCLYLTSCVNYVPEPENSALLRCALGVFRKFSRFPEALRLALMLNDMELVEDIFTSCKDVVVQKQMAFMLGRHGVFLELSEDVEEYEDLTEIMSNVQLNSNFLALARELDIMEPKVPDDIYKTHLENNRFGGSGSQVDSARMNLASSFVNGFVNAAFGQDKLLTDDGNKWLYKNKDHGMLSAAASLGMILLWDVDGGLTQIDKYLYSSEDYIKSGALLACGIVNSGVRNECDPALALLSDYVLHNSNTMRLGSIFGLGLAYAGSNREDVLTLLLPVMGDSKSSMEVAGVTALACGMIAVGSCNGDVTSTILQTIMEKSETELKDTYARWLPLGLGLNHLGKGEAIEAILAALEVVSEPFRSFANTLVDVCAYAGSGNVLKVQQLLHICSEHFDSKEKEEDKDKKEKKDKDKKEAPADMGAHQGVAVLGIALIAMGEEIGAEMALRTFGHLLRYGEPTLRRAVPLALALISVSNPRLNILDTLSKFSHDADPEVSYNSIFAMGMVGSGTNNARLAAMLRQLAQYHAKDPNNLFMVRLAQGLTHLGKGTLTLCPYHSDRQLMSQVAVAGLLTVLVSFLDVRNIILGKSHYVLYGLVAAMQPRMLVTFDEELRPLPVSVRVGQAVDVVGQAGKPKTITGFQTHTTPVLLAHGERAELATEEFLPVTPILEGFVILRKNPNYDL
UniProt P84085: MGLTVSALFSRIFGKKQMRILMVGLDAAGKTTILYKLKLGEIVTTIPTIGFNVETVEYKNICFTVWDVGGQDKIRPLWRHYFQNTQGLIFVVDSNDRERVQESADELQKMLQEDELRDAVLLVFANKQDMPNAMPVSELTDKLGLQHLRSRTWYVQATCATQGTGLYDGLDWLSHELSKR
UniProt P53396: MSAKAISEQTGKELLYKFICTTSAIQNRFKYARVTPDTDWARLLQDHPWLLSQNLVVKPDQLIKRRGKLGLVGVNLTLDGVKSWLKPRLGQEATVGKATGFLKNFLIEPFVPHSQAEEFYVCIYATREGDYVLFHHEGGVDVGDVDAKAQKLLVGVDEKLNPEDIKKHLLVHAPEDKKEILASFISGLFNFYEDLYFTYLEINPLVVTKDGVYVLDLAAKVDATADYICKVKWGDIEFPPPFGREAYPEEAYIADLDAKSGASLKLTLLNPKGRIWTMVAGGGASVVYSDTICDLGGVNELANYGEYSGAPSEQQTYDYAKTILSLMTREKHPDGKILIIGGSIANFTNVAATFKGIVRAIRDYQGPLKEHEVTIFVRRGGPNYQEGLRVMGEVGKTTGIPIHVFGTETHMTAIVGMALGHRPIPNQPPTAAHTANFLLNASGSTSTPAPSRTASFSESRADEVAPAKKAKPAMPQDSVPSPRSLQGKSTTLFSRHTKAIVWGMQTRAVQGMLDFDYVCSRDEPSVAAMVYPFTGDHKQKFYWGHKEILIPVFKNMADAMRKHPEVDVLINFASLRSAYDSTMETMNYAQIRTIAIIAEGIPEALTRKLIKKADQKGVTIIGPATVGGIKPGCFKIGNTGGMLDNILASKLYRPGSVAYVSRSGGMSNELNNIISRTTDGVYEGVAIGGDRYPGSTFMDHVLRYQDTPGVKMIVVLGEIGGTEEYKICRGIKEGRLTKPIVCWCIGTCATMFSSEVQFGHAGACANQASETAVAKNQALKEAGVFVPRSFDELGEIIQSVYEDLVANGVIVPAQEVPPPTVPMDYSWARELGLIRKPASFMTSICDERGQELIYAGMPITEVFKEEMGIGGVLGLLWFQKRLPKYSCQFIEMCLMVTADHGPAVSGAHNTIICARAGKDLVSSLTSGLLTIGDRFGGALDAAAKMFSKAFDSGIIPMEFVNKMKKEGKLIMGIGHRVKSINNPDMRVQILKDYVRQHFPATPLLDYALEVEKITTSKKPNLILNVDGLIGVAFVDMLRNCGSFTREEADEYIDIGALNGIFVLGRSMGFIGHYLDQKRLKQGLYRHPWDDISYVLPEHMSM
UniProt Q99729: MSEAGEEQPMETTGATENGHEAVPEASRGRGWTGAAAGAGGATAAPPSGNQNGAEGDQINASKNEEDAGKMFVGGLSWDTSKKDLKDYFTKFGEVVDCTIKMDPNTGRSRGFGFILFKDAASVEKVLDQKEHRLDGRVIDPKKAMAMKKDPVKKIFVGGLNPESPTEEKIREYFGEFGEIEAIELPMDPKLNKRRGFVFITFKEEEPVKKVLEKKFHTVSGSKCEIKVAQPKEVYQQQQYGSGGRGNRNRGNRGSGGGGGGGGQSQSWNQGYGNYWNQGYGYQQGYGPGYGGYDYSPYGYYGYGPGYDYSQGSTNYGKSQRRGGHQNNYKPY
UniProt P61619: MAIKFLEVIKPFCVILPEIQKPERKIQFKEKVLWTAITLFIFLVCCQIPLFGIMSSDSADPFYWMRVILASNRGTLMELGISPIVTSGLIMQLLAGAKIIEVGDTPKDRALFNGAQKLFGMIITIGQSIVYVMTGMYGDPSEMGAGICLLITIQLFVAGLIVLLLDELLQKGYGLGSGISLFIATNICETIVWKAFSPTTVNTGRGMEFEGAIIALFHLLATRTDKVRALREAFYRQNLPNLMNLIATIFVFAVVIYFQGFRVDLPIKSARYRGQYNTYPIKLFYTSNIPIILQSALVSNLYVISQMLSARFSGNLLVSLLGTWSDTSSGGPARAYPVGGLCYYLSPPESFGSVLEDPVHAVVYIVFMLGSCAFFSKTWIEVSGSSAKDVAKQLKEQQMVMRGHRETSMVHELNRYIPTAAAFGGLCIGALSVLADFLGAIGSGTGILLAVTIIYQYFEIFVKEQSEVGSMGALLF
UniProt P61026: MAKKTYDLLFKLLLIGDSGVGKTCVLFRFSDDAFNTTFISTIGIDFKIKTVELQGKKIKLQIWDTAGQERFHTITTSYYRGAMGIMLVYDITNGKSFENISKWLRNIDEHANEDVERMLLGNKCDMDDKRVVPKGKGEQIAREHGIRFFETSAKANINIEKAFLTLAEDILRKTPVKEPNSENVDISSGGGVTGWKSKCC
UniProt Q13838: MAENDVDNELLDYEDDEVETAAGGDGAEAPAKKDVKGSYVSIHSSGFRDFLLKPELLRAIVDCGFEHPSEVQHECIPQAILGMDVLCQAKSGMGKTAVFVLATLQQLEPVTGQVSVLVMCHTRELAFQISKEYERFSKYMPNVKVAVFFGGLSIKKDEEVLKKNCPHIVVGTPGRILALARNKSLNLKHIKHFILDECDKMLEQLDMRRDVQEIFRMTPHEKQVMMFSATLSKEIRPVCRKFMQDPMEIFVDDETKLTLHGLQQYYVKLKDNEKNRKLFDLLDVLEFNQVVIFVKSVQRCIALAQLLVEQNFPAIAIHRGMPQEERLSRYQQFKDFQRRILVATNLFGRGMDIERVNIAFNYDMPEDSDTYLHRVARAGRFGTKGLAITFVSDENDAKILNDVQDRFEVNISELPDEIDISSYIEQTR
UniProt Q96KR1: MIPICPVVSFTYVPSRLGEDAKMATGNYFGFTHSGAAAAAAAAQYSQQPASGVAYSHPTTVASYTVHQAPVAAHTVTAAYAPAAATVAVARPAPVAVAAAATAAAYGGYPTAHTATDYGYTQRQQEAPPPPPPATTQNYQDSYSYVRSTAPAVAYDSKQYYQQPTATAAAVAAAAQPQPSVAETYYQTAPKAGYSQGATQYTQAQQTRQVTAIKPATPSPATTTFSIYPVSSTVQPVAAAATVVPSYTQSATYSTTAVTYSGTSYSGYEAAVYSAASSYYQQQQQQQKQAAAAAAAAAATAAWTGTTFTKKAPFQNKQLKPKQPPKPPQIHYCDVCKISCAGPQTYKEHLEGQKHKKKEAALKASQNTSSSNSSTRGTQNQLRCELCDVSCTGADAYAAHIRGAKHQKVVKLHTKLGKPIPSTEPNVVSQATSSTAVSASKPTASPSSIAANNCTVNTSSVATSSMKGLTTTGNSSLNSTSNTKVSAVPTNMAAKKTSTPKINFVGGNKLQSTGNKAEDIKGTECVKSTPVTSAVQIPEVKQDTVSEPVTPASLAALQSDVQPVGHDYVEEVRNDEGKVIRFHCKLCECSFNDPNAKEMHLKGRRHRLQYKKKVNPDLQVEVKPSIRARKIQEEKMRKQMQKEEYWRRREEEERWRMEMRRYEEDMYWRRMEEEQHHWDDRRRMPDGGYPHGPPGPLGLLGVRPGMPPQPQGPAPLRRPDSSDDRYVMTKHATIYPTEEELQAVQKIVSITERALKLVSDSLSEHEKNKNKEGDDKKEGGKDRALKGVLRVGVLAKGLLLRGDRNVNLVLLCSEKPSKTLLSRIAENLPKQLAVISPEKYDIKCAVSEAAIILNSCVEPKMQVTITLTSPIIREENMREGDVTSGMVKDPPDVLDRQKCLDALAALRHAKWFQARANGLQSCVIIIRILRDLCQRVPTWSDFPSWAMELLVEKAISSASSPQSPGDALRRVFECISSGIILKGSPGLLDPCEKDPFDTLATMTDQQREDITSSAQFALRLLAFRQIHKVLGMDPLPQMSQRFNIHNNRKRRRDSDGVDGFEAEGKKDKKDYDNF
UniProt P26641: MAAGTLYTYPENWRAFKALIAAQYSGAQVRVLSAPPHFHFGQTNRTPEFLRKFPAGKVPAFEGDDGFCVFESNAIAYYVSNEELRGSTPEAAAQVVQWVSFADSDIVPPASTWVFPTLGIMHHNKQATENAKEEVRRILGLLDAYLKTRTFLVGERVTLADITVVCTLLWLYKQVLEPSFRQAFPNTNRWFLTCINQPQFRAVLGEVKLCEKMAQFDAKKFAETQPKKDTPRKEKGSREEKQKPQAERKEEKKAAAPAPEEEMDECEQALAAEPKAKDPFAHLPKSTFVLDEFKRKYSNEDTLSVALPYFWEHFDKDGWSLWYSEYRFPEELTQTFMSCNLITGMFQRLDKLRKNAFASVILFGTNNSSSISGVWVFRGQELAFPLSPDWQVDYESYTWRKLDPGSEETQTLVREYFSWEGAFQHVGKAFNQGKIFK
UniProt P60842: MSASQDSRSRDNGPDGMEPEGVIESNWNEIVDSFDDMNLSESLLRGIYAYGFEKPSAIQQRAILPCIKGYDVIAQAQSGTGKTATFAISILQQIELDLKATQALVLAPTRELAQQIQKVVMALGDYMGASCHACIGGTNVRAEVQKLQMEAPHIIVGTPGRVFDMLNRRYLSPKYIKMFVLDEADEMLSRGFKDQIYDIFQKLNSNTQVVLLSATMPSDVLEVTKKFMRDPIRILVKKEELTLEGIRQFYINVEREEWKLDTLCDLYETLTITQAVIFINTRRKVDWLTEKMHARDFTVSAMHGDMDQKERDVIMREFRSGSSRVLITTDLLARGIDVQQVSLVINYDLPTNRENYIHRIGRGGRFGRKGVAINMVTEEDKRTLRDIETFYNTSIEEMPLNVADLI
UniProt P08670: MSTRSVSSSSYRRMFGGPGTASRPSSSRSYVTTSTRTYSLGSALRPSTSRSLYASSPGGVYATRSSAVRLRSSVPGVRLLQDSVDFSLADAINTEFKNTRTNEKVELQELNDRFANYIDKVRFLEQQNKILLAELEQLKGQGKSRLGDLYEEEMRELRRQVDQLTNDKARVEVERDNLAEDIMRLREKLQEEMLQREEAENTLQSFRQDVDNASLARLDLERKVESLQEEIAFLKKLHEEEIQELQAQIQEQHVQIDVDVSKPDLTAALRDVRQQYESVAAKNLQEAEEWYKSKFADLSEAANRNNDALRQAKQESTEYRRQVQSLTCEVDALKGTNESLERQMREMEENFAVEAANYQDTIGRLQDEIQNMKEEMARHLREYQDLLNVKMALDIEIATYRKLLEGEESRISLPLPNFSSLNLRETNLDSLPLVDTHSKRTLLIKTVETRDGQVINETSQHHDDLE

These are yes or no findings as the source states them, for the method shown. In cells and extracts the contact can be indirect. These calls come from enrichment with a bait or labelling near it, and not all partners need be listed.

For the first experiment, the target named is Staufen1-TAP (UniProt O95793). Kind of experiment: affinity purification with mass spectrometry; tandem affinity purification of Staufen1-TAP from lysates of stable 293T cells, mock or pNL4-3 transfected; eluates on SDS-PAGE, 23 gel slices, in gel trypsin digestion, LC-MS/MS; FDR less than 1%.
With “26S protease regulatory subunit S10B (from UniProt P62333 1-389)”, the binding entry is recorded as “binds”.
Still for that read-out and setting: the value for “26S proteasome non-ATPase regulatory subunit 2 (from UniProt Q13200 1-908)” was “binds”.
“ADP-ribosylation factor 1 (from UniProt P84077 1-181)”: the binding entry is recorded as “binds”.
The same measure, in the same setting: the value for “ADP-ribosylation factor 4 (from UniProt P18085 1-180)” was “binds”.
On the same count and under the same terms, the entry for “ADP-ribosylation factor 5 (from UniProt P84085 1-180)” is “binds”; for “ADP-ribosylation factor 6 (from UniProt P62330 1-175)” it is “binds”.
Same read-out and setting: the value for “AP-2 complex subunit mu (from UniProt Q96CW1 1-435)” was “binds”; that for “ATP-citrate synthase (from UniProt P53396 1-1101)” was “binds”; that for CDC5L (from UniProt Q99459 1-802) was “binds”.
Take “Coatomer subunit zeta-1 (from UniProt P61923 1-177)”: the binding result was “binds”.
Still for that read-out and setting: the value for Copine-3 (from UniProt O75131 1-537) was “binds”; that for “E3 ubiquitin-protein ligase (BRE1A) (from UniProt Q5VTR2 1-975)” was “binds”; that for “Eukaryotic initiation factor 4A-III (from UniProt P38919 1-411)” was “binds”.
On the same count and under the same terms, the value for “Eukaryotic translation initiation factor 3 subunit E (from UniProt P60228 1-445)” was “binds”; that for “HIV-1 Rev-binding protein 2 (from UniProt Q13601 1-381)” was “binds”; that for “Heat shock 70 kDa protein 1L (from UniProt P34931 1-641)” was “binds”.
The same measure, in the same setting: the value for “Heterogeneous nuclear ribonucleoprotein A/B (from UniProt Q99729 1-332)” was “binds”; that for “Heterogeneous nuclear ribonucleoprotein Q (from UniProt O60506 1-623)” was “binds”.
In the case of Hsc70 (from UniProt P11142 1-646), the binding entry was “binds”.
The same measure, in the same setting: the entry for Hsp60 (from UniProt P10809 27-573) is “binds”.
On the same count and under the same terms, the value for “IQ motif containing GTPase activating protein 1 (from UniProt P46940 1-1657)” was “binds”; that for “Insulin-like growth factor II mRNA-binding protein-3 (from UniProt O00425 1-579)” was “binds”.
Same read-out and setting: the entry for “Long-chain-fatty-acid–CoA ligase 3 (from UniProt O95573 1-720)” is “binds”; for Nef (from UniProt P05855 1-205) it is “binds”; for “Probable ATP-dependent RNA helicase (DDX17) (from UniProt Q92841 1-729)” it is “binds”.
On to “Programmed cell death 8 (from UniProt O95831)”, for which the binding result is given as “binds”.
As for “Protein transport protein Sec61 subunit alpha isoform 1 (from UniProt P61619 1-476)”, the binding entry is on record as “binds”.
Still for that read-out and setting: the entry for “Ras-related GTP-binding protein A (from UniProt Q7L523 1-313)” is “binds”; for “Ras-related protein Rab-5C (from UniProt P51148 1-216)” it is “binds”.
As for “Ras-related protein Rab-8A (from UniProt P61006 1-207)”, the binding entry was “binds”.
Same read-out and setting: the value for “Ras-related protein Rab-10 (from UniProt P61026 1-200)” was “binds”; that for SF3B2 (from UniProt Q13435 1-895) was “binds”; that for “Spliceosome RNA helicase (BAT1) (from UniProt Q13838 1-428)” was “binds”.
On the same count and under the same terms, the entry for “Splicing factor, arginine/serine-rich 13A (from UniProt O75494 1-262)” is “binds”; for “Tubulin alpha-4A chain (from UniProt P68366 1-448)” it is “binds”; for “V-type proton ATPase subunit d 1 (from UniProt P61421 1-351)” it is “binds”.
As for Xpo2 (from UniProt P55060 1-971), the binding entry was “binds”.
Still for that read-out and setting: the value for YB-1 (from UniProt P67809 1-324) was “binds”.
The same measure, in the same setting: the entry for “Zinc finger RNA-binding protein (from UniProt Q96KR1 1-1074)” is “binds”; for “adaptor protein AP-3S1 (sigma subunit) (from UniProt Q92572 1-193)” it is “binds”.
On the same count and under the same terms, the value for “chromosomal regional maintenance protein 1 (from UniProt O14980 1-1071)” was “binds”; that for “coatomer subunit alpha (from UniProt P53621 1-1224)” was “binds”; that for eF1 γ (from UniProt P26641 1-437) was “binds”.
In the case of eF1 δ (from UniProt P29692 1-281), the binding entry is listed as “binds”.
As to eIF4A1 (from UniProt P60842 1-406), the binding entry is on record as “binds”.
On the same count and under the same terms, the value for “endogenous Staufen1 (as named among the mass spectrometry hits) (from UniProt O95793 1-577)” was “binds”.
With “glyceraldehyde-3-phosphate dehydrogenase (from UniProt P04406 1-335)”, the binding result is reported as “binds”.
For “insulin-like growth factor II mRNA-binding protein 2 (from UniProt Q9Y6M1 1-599)”, the binding result is “binds”.
Same read-out and setting: the value for “poly-A binding protein (from UniProt P11940 1-636)” was “binds”; that for “vesicle-fusing ATPase (from UniProt P46459 1-744)” was “binds”.
The same measure, in the same setting: the entry for vimentin (from UniProt P08670 1-466) is “binds”.

The target of another experiment is Staufen1-TAP (UniProt O95793). The description is as above. This is another data set of the same source.
As to B1, the binding result is recorded as “binds”.
On the same count and under the same terms, the value for B2 was “binds”; that for B3 was “binds”.

The values are drawn from article PMC3486646.
